Primary screen of a compound library

By UniProt entry, the sequences of proteins in these tests, tags left out. Residues count along the entry.
UniProt P9WNZ1, whole entry: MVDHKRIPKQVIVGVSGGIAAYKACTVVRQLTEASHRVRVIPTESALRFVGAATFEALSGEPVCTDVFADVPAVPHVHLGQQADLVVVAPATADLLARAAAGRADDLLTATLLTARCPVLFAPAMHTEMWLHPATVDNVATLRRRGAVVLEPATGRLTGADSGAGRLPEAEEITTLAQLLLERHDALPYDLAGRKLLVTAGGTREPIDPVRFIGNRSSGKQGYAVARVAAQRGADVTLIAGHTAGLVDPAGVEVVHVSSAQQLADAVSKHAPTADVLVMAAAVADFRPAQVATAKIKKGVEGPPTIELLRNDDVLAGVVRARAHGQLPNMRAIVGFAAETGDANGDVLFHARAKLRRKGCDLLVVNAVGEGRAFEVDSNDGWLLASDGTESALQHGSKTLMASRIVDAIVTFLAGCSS
UniProt P9WFT3, whole entry: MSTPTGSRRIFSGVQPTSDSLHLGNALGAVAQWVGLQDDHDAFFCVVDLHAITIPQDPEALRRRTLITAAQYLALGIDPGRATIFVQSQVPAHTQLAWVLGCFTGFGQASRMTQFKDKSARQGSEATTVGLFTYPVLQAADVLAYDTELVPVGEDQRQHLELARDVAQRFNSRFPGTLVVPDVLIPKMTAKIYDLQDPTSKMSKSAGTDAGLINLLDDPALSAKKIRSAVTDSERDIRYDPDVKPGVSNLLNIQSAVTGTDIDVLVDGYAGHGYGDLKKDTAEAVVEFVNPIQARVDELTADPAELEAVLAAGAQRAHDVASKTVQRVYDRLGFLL
UniProt A4I591, 1-473: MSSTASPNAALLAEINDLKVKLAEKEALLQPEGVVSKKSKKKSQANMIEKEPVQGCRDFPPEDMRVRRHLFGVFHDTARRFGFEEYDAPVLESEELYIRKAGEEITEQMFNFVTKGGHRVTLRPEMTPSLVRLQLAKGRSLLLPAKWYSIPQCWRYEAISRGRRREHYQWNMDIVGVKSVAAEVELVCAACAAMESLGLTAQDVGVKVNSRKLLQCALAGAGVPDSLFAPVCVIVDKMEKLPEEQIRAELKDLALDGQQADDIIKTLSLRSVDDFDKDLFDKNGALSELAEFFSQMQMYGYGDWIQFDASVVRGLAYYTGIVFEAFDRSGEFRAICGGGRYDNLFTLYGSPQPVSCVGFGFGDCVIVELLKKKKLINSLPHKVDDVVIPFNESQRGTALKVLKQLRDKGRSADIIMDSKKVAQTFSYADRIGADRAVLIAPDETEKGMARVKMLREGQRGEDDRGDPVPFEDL

Source: ChEMBL document CHEMBL3988442, “University of Dundee, Small-Polar-MMV Screening Library” (2021).

CoaBC: 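Coenzyme A biosynthesis protein CoaBC, Mycobacterium tuberculosis (UniProt P9WNZ1). Enzyme assay of CoaBC with a phosphate dye (Biomol Green) read at 650 nm. Tested at 30 µM. Direction is inferred from only a few compounds that gave an IC50; most scored high, so higher reads as stronger inhibition. Most strong results did not repeat in a second test. Size under these conditions: about 67,000 compounds, about 40 of them at 50% or above in at least one test.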
Toxoplasma: 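Assay of Toxoplasma gondii numbers, read through their beta-galactosidase reporter with a colour substrate. Compounds at 10 µM. Higher reads as fewer parasites (inferred from which compounds were picked for retests). Size under these conditions: about 67,000 compounds, about 260 of them at 50% or above in at least one test.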
Leishmania in macrophages: 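Cell assay of Leishmania donovani living inside macrophages; the read-out is not stated. Concentration: 30 µM. Direction is inferred from retests: higher values go with stronger inhibition. Size under these conditions: about 69,000 compounds, about 1,000 of them at 50% or above in at least one test.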
MtTrpRS: 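Enzyme assay of tryptophanyl-tRNA synthetase; the read-out is not stated. Target: Tryptophan-tRNA ligase, Mycobacterium tuberculosis (UniProt P9WFT3). Compounds at 10 µM. Direction is not recorded; retested compounds ran higher, which suggests that high means inhibition. Size under these conditions: about 65,000 compounds, about 64 of them at 50% or above in at least one test.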
LiHisRS: 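Enzyme assay of histidyl-tRNA synthetase; the read-out is not stated. Target: Histidine-tRNA ligase, Leishmania infantum (UniProt A4I591). Compounds at 30 µM. The record gives no direction; compounds that gave an IC50 in retests scored well above the rest, so higher reads as stronger inhibition. The assay is labelled LdHisRS but filed under L. infantum. Of about 69,000 compounds tested this way, about 410 (0.6%) reached 50% or more in at least one test.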

Results are given as percent effect. How 0% and 100% were set is not recorded. Most values in the screen are low, and negative values occur. The compounds are a random part of those screened.

Cc1n[nH]c(C2CN(C(=O)c3csnn3)CCO2)n1 (centres unmarked) read CoaBC: -3.171%; Toxoplasma: 3.379%; Leishmania in macrophages: 27.21%; MtTrpRS: -1.204%; LiHisRS: 9.6%. Cc1ncsc1-c1cc(C(=O)NCCO)ccn1 read CoaBC: 0.4566%; Toxoplasma: -13.94%; Leishmania in macrophages: 5.125%; MtTrpRS: 18.35%; LiHisRS: 12.08%. With c1ccc(COC[C@H]2CC[C@H]3[C@H](CCN3Cc3cccs3)O2)nc1 the screen gave CoaBC: -1.607%; MtTrpRS: -2.199%; LiHisRS: 11%. Cc1ccc(NC2CCN(C(=O)c3cncnc3C)CC2)nn1 gave CoaBC: -1.023%; Toxoplasma: -1.912%; Leishmania in macrophages: -10.7%; MtTrpRS: 6.968%; LiHisRS: 16.51%.

CN1CCN(Cc2cnc3n2CCN(Cc2cccnc2)CC3)CC1.O=C(O)C(F)(F)F.O=C(O)C(F)(F)F.O=C(O)C(F)(F)F read Toxoplasma: -2.005%; Leishmania in macrophages: -0.467%. With Clc1ccc(C2(CNC3=NCCN3)CCCC2)cc1.I the screen gave Toxoplasma: -0.3745%; Leishmania in macrophages: 15.58%. With Cc1n[nH]c(NC(=O)c2ccc(COCC(F)(F)F)cc2)c1C the screen gave CoaBC: 0.4854%; Toxoplasma: 0.1291%; Leishmania in macrophages: 6.524%; MtTrpRS: -0.7199%; LiHisRS: 14.29%. CC(C)c1nc(CN(C)Cc2cnc(N3CCOCC3)nc2)no1 gave CoaBC: -0.8065%; Toxoplasma: -6.384%; Leishmania in macrophages: -14.05%; MtTrpRS: -7.173%; LiHisRS: 5.263%.

With N#Cc1ccnc(N2CCC(c3nccn3Cc3cscn3)CC2)c1 the screen gave CoaBC: -8.929%; Toxoplasma: -3.855%; Leishmania in macrophages: -18.61%; MtTrpRS: 0.8881%; LiHisRS: 12.62%. N#CC1COCCN1S(=O)(=O)c1ccc(F)c(Br)c1 (centres unmarked) read CoaBC: 7.143%; Toxoplasma: 2.304%; Leishmania in macrophages: 4.02%; MtTrpRS: -0.3812%; LiHisRS: -6.25%. Result for CCOCC1CN(S(=O)(=O)N(C)C)Cc2cnn(CC)c21.O=C(O)C(F)(F)F (centres unmarked) was Toxoplasma: -2.405%; Leishmania in macrophages: 7.212%. With CC(C)CN1C(=O)C2(CCCC2)NC1c1cn(C)c(=O)n(C)c1=O (centres unmarked) the screen gave CoaBC: 3.113%; Toxoplasma: 9.205%; Leishmania in macrophages: 15%; MtTrpRS: -1.14%; LiHisRS: 13.51%.

CCn1nc(C)c2nc(C)nc(N(C)Cc3ccco3)c21 gave CoaBC: 5.19%; Toxoplasma: -17.7%; Leishmania in macrophages: 2.444%; MtTrpRS: 0.1356%; LiHisRS: 20%. For c1csc(-c2noc(CCCNC3CCc4ncnn4C3)n2)c1 (centres unmarked) the result was Toxoplasma: 5.178%; Leishmania in macrophages: 15.42%; MtTrpRS: 0.5045%; LiHisRS: 9.859%. For Cc1cccc(-n2cnnc2CCCN2CCOCC2)c1 the result was CoaBC: 7.006%; Toxoplasma: -2.703%; Leishmania in macrophages: 22.56%; MtTrpRS: -2.596%; LiHisRS: -117.7%. Cc1cc(C)c(S(=O)(=O)Nc2cccc3c2OCCO3)cc1C(=O)O read CoaBC: 0.6402%; Toxoplasma: 4.939%; Leishmania in macrophages: 10.37%; MtTrpRS: 1.157%; LiHisRS: 19.75%.

Cc1cccc(OCCNC(=O)C(C)S(=O)(=O)c2ccccn2)c1 (centres unmarked) gave CoaBC: 7.54%; Toxoplasma: -7.556%; Leishmania in macrophages: -11.11%; MtTrpRS: 3.431%; LiHisRS: 11.61%. For CN(CCc1cccs1)C1CCCN(Cc2noc(C3CC3)n2)C1 (centres unmarked) the result was CoaBC: 10.97%; Toxoplasma: 5.001%; Leishmania in macrophages: 36.53%; MtTrpRS: -0.9479%; LiHisRS: 2.885%. Result for NCC1CN(c2nc(-c3ccccc3)nc3c2CCNCC3)CCO1 (centres unmarked) was CoaBC: -25.16%; Toxoplasma: 7.315%; Leishmania in macrophages: 6.18%; MtTrpRS: 2.549%; LiHisRS: 34.29%.

Once more, the final 2:

| SMILES | CoaBC | Toxoplasma | Leishmania in macrophages | MtTrpRS | LiHisRS |
|---|---|---|---|---|---|
| `CN(CCc1cccs1)C1CCCN(Cc2noc(C3CC3)n2)C1` (centres unmarked) | 10.97% | 5.001% | 36.53% | -0.9479% | 2.885% |
| `NCC1CN(c2nc(-c3ccccc3)nc3c2CCNCC3)CCO1` (centres unmarked) | -25.16% | 7.315% | 6.18% | 2.549% | 34.29% |